The text below walks through data of article PMC5509711.

No constants are given. Whether binding was seen depends on the method and setting. A result given as binding can be weak or reduced; the word gives no strength. Sequences can lack the tags named with a protein. For some of these results: Binding seen in cells or lysates may run through a third protein.

Test [1] addresses GAL4 AD fusion of DOG1 (β-isoform, Cvi) (Arabidopsis (Cvi accession)). As to the kind of experiment: two-hybrid; yeast GAL4 system, strain PJ69-4alpha; pACT2 (GAL4 AD) DOG1 with pAS2 (GAL4 BD) phosphatases; growth on -LWH with 5 mM 3-aminotriazole, 30 °C, 7 days; β-galactosidase filter assay.
Test [2] has as its target DOG1 beta fused to the N-terminal half of YFP (Arabidopsis). As to the kind of experiment: split reporter; BiFC in epidermis cells of Nicotiana benthamiana leaves; DOG1 fused to the N-terminal half and the phosphatases to the C-terminal half of YFP; confocal microscopy 48 h after agro-infiltration.

B1: GAL4 BD fusion of AHG1 (enzyme, UniProt Q9FLI3 1-416)
chain: MTEIYRTISTGRGDDVSPTKCRERRRRRIEMRRQAAVFGEPSSSRNRDRTDMEVYSSFDVPLRKQARRSEIGGLPADIGGFLAPPAASSCQKSEAPVWKGEETEDEPLYGIVSVMGRSRKMEDSVTVKPNLCKPEVNRQRPVHFFAVYDGHGGSQVSTLCSTTMHTFVKEELEQNLEEEEEGSENDVVERKWRGVMKRSFKRMDEMATSTCVCGTSVPLCNCDPREAAISGSTAVTAVLTHDHIIVANTGDSRAVLCRNGMAIPLSNDHKPDRPDERARIEAAGGRVLVVDGARVEGILATSRAIGDRYLKPMVAWEPEVTFMRRESGDECLVLASDGLWDVLSSQLACDIARFCLREETPSSLDLNRMAQEDDNDGEQNPSRSVLAATLLTRLALGRQSSDNISVVVIDLKNSSQ
With B1, the binding entry in test [1] is “binds”.

B2: AHG1 fused to the C-terminal half of YFP (enzyme, UniProt Q9FLI3 1-416)
chain: MTEIYRTISTGRGDDVSPTKCRERRRRRIEMRRQAAVFGEPSSSRNRDRTDMEVYSSFDVPLRKQARRSEIGGLPADIGGFLAPPAASSCQKSEAPVWKGEETEDEPLYGIVSVMGRSRKMEDSVTVKPNLCKPEVNRQRPVHFFAVYDGHGGSQVSTLCSTTMHTFVKEELEQNLEEEEEGSENDVVERKWRGVMKRSFKRMDEMATSTCVCGTSVPLCNCDPREAAISGSTAVTAVLTHDHIIVANTGDSRAVLCRNGMAIPLSNDHKPDRPDERARIEAAGGRVLVVDGARVEGILATSRAIGDRYLKPMVAWEPEVTFMRRESGDECLVLASDGLWDVLSSQLACDIARFCLREETPSSLDLNRMAQEDDNDGEQNPSRSVLAATLLTRLALGRQSSDNISVVVIDLKNSSQ
B2: the binding entry in test [2] is on record as “binds”.

B3: PDF1 fused to the C-terminal half of YFP (protein, UniProt Q38950 1-587)
chain: MSMIDEPLYPIAVLIDELKNDDIQLRLNSIRRLSTIARALGEERTRKELIPFLSENNDDDDEVLLAMAEELGVFIPYVGGVEYAHVLLPPLETLSTVEETCVREKAVESLCRVGSQMRESDLVDHFISLVKRLAAGEWFTARVSACGVFHIAYPSAPDMLKTELRSLYTQLCQDDMPMVRRAAATNLGKFAATVESAHLKTDVMSMFEDLTQDDQDSVRLLAVEGCAALGKLLEPQDCVQHILPVIVNFSQDKSWRVRYMVANQLYELCEAVGPEPTRTELVPAYVRLLRDNEAEVRIAAAGKVTKFCRILNPEIAIQHILPCVKELSSDSSQHVRSALASVIMGMAPVLGKDATIEHLLPIFLSLLKDEFPDVRLNIISKLDQVNQVIGIDLLSQSLLPAIVELAEDRHWRVRLAIIEYIPLLASQLGVGFFDDKLGALCMQWLQDKVHSIRDAAANNLKRLAEEFGPEWAMQHIVPQVLEMVNNPHYLYRMTILRAVSLLAPVMGSEITCSKLLPVVMTASKDRVPNIKFNVAKVLQSLIPIVDQSVVEKTIRPGLVELSEDPDVDVRFFANQALQSIDNVMMSS
With B3, the binding entry in test [2] is on record as “binds”.

B4: GAL4 BD fusion of PDF1 (protein, UniProt Q38950 1-587)
chain: MSMIDEPLYPIAVLIDELKNDDIQLRLNSIRRLSTIARALGEERTRKELIPFLSENNDDDDEVLLAMAEELGVFIPYVGGVEYAHVLLPPLETLSTVEETCVREKAVESLCRVGSQMRESDLVDHFISLVKRLAAGEWFTARVSACGVFHIAYPSAPDMLKTELRSLYTQLCQDDMPMVRRAAATNLGKFAATVESAHLKTDVMSMFEDLTQDDQDSVRLLAVEGCAALGKLLEPQDCVQHILPVIVNFSQDKSWRVRYMVANQLYELCEAVGPEPTRTELVPAYVRLLRDNEAEVRIAAAGKVTKFCRILNPEIAIQHILPCVKELSSDSSQHVRSALASVIMGMAPVLGKDATIEHLLPIFLSLLKDEFPDVRLNIISKLDQVNQVIGIDLLSQSLLPAIVELAEDRHWRVRLAIIEYIPLLASQLGVGFFDDKLGALCMQWLQDKVHSIRDAAANNLKRLAEEFGPEWAMQHIVPQVLEMVNNPHYLYRMTILRAVSLLAPVMGSEITCSKLLPVVMTASKDRVPNIKFNVAKVLQSLIPIVDQSVVEKTIRPGLVELSEDPDVDVRFFANQALQSIDNVMMSS
With B4, the binding entry in test [1] is recorded as “binds weakly”.
